PubChem BioAssay AID1259405 – NCATS – 2018
Test: 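Silenced genes that increase secreted GFP made by CHO cells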 (primary screen). System: Chinese hamster CHO-K1 ovary cells with stable secreted eGFP expression. Reagents: single siRNA against mouse genes, 0.8 pmol siRNA per well (2 µl of 400 nM stock). Timing: 3 days. Read-out: 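Per-well intracellular GFP measured by laser scanning cytometry, plus viability from ATP luminescence, each relative to plate median of non-targeting control wells, in %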. Direction: GFP, % of control: higher = more GFP per well, higher productivity; viability (ATP), % of control: higher = more viable cells (more ATP). Rule for the call: 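a knock-down is called active if GFP reaches 120% or more of non-targeting control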.
The deposit covers about 50,000 reagents; below is a part drawn at random. Over the whole deposit, about 4,000 (8%) are marked active. 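Mouse siRNA library applied to hamster cells; one well for each siRNA.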 Reagents against one gene are numbered here.

Dync1i2 (dynein cytoplasmic 1 intermediate chain 2) #1
- GFP, % of control: 91.9
- viability (ATP), % of control: 53.6
- Outcome: inactive

Dync1i2 (dynein cytoplasmic 1 intermediate chain 2) #2
- GFP, % of control: 103
- viability (ATP), % of control: 113
- Outcome: inactive

Map4k1 (mitogen-activated protein kinase kinase kinase kinase 1)
- GFP, % of control: 117
- viability (ATP), % of control: 73.7
- Outcome: inactive

Fgf5 (fibroblast growth factor 5) #1
- GFP, % of control: 81.4
- viability (ATP), % of control: 25
- Outcome: inactive

Fgf5 (fibroblast growth factor 5) #2
- GFP, % of control: 67.6
- viability (ATP), % of control: 64
- Outcome: inactive

Fgf5 (fibroblast growth factor 5) #3
- GFP, % of control: 69.9
- viability (ATP), % of control: 67.1
- Outcome: inactive

Cct8 (chaperonin containing TCP1 subunit 8) #1
- GFP, % of control: 41.7
- viability (ATP), % of control: 30.3
- Outcome: inactive

Cct8 (chaperonin containing TCP1 subunit 8) #2
- GFP, % of control: 90.8
- viability (ATP), % of control: 83.9
- Outcome: inactive

Cct8 (chaperonin containing TCP1 subunit 8) #3
- GFP, % of control: 57.2
- viability (ATP), % of control: 50
- Outcome: inactive

Tmem132c (transmembrane protein 132C) #1
- GFP, % of control: 52.3
- viability (ATP), % of control: 25.5
- Outcome: inactive

Tmem132c (transmembrane protein 132C) #2
- GFP, % of control: 101
- viability (ATP), % of control: 68.1
- Outcome: inactive

Tmem132c (transmembrane protein 132C) #3
- GFP, % of control: 82.6
- viability (ATP), % of control: 104
- Outcome: inactive

Or10g9 (olfactory receptor family 10 subfamily G member 9) #1
- GFP, % of control: 112
- viability (ATP), % of control: 84.4
- Outcome: inactive

Or10g9 (olfactory receptor family 10 subfamily G member 9) #2
- GFP, % of control: 69.5
- viability (ATP), % of control: 67.2
- Outcome: inactive

Or10g9 (olfactory receptor family 10 subfamily G member 9) #3
- GFP, % of control: 42.6
- viability (ATP), % of control: 29.1
- Outcome: inactive

Smim10l2a (small integral membrane protein 10 like 2A) #1
- GFP, % of control: 40.1
- viability (ATP), % of control: 58.8
- Outcome: inactive

Smim10l2a (small integral membrane protein 10 like 2A) #2
- GFP, % of control: 57.7
- viability (ATP), % of control: 79.6
- Outcome: inactive

Smim10l2a (small integral membrane protein 10 like 2A) #3
- GFP, % of control: 38.9
- viability (ATP), % of control: 66.1
- Outcome: inactive

Cass4 (Cas scaffolding protein family member 4) #1
- GFP, % of control: 63.2
- viability (ATP), % of control: 75.6
- Outcome: inactive

Cass4 (Cas scaffolding protein family member 4) #2
- GFP, % of control: 121
- viability (ATP), % of control: 60.5
- Outcome: active

Cass4 (Cas scaffolding protein family member 4) #3
- GFP, % of control: 90.5
- viability (ATP), % of control: 62.6
- Outcome: inactive

Arl13b (ADP-ribosylation factor-like 13B) #1
- GFP, % of control: 124
- viability (ATP), % of control: 105
- Outcome: active

Arl13b (ADP-ribosylation factor-like 13B) #2
- GFP, % of control: 44
- viability (ATP), % of control: 48
- Outcome: inactive

Arl13b (ADP-ribosylation factor-like 13B) #3
- GFP, % of control: 112
- viability (ATP), % of control: 105
- Outcome: inactive

Mettl2 (methyltransferase 2, methylcytidine) #1
- GFP, % of control: 91.9
- viability (ATP), % of control: 72.5
- Outcome: inactive

Mettl2 (methyltransferase 2, methylcytidine) #2
- GFP, % of control: 45
- viability (ATP), % of control: 73.4
- Outcome: inactive

Mettl2 (methyltransferase 2, methylcytidine) #3
- GFP, % of control: 99
- viability (ATP), % of control: 121
- Outcome: inactive

Or8k1 (olfactory receptor family 8 subfamily K member 1) #1
- GFP, % of control: 28.3
- viability (ATP), % of control: 32.7
- Outcome: inactive

Or8k1 (olfactory receptor family 8 subfamily K member 1) #2
- GFP, % of control: 64.8
- viability (ATP), % of control: 22.8
- Outcome: inactive

Or8k1 (olfactory receptor family 8 subfamily K member 1) #3
- GFP, % of control: 81.9
- viability (ATP), % of control: 93.5
- Outcome: inactive

Ptprb (protein tyrosine phosphatase receptor type B) #1
- GFP, % of control: 120
- viability (ATP), % of control: 119
- Outcome: active

Ptprb (protein tyrosine phosphatase receptor type B) #2
- GFP, % of control: 70.2
- viability (ATP), % of control: 55.9
- Outcome: inactive

Kdm4d (lysine (K)-specific demethylase 4D) #1
- GFP, % of control: 69
- viability (ATP), % of control: 67.1
- Outcome: inactive

Kdm4d (lysine (K)-specific demethylase 4D) #2
- GFP, % of control: 86.6
- viability (ATP), % of control: 69.2
- Outcome: inactive

Kdm4d (lysine (K)-specific demethylase 4D) #3
- GFP, % of control: 103
- viability (ATP), % of control: 86.6
- Outcome: inactive

Nt5c3b (5'-nucleotidase, cytosolic IIIB) #1
- GFP, % of control: 90.5
- viability (ATP), % of control: 119
- Outcome: inactive

Nt5c3b (5'-nucleotidase, cytosolic IIIB) #2
- GFP, % of control: 99.8
- viability (ATP), % of control: 63.7
- Outcome: inactive

Nt5c3b (5'-nucleotidase, cytosolic IIIB) #3
- GFP, % of control: 70.2
- viability (ATP), % of control: 97.1
- Outcome: inactive

Aldh9a1 (aldehyde dehydrogenase 9, subfamily A1) #1
- GFP, % of control: 71.9
- viability (ATP), % of control: 89.3
- Outcome: inactive

Aldh9a1 (aldehyde dehydrogenase 9, subfamily A1) #2
- GFP, % of control: 61.8
- viability (ATP), % of control: 65.7
- Outcome: inactive

Aldh9a1 (aldehyde dehydrogenase 9, subfamily A1) #3
- GFP, % of control: 59.2
- viability (ATP), % of control: 86.7
- Outcome: inactive
